Results are given in words; binding and its absence hold for the method and conditions named. In cells and extracts the contact can be indirect. Some results given as binding are weak or reduced against the parent protein; the word gives no strength.
Legend:
[1] = molecular target: T1, GARS, exogenously expressed (UniProt P41250); assay: co-IP; exogenously expressed proteins in 5637 and T24 cell lines; which protein was precipitated is not given
T1 sequence: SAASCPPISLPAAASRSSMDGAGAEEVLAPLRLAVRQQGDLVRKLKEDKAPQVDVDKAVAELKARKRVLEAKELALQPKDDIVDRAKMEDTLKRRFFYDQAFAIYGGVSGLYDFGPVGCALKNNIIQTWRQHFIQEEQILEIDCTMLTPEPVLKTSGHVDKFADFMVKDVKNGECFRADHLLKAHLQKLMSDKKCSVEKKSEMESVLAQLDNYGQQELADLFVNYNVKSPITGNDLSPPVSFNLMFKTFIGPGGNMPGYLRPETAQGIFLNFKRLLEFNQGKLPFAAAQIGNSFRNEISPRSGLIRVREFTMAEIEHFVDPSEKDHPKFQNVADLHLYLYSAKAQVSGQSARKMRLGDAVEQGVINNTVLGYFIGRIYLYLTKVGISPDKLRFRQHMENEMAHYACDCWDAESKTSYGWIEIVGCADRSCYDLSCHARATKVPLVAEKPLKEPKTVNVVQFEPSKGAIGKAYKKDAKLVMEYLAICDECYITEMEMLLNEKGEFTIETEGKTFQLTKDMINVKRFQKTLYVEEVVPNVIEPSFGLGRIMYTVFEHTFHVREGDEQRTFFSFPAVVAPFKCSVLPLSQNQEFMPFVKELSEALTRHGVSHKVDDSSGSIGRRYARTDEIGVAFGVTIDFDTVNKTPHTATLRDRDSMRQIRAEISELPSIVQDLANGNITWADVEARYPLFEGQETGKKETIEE

Protein sequences, listed by entry. Tags and fused reporters are not part of them.
UniProt P14618: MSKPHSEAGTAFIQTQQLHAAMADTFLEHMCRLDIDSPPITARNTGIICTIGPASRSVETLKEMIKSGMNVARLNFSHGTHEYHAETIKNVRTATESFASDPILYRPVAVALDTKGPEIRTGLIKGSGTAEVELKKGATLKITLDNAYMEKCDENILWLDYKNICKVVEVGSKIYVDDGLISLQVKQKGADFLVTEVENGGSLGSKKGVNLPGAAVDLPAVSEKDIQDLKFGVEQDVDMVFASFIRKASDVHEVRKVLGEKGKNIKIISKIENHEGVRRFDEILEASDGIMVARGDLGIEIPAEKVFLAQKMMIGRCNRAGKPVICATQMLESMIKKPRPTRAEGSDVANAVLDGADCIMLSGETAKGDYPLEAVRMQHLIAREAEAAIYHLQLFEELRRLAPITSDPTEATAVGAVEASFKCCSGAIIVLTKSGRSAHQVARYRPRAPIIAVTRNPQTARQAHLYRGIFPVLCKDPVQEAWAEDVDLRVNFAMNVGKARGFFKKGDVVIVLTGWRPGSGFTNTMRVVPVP

[2] = molecular target: T2, GARS, endogenous in bladder cancer tumor tissue (human (endogenous in bladder cancer tumor tissue)) (UniProt P41250); assay: co-IP; bladder cancer tumor tissues; which protein was precipitated is not given
T2 sequence: T1 sequence

Substance	binding [1]	binding [2]
PKM2, exogenously expressed (from UniProt P14618 1-531) (enzyme)	binds	–
PKM2, endogenous in bladder cancer tumor tissue (from UniProt P14618 1-531) (enzyme)	–	binds

Reference: article PMC9164575
